Test results reported in the supplement of paper PMC12067093, “Discovery and optimisation of a covalent ligand for TRIM25 and its application to targeted protein ubiquitination” (Chemical Science, 2025).
This is one part of the list.

Chains of the proteins cited; added tags and fusions are not shown. Lines headed by an entry give the natural chain unless they say otherwise; changes in a name come on top.
UniProt Q99986: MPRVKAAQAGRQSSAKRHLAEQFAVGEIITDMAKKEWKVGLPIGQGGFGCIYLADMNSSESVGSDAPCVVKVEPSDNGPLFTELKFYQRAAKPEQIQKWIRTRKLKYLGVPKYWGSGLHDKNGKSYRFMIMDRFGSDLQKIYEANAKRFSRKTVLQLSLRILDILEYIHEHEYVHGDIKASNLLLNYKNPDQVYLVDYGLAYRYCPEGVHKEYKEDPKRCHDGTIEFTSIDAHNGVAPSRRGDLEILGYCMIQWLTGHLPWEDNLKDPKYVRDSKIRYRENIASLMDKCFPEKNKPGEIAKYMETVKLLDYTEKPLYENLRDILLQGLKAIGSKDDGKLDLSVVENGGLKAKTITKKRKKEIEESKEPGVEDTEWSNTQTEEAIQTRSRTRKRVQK
UniProt P50552: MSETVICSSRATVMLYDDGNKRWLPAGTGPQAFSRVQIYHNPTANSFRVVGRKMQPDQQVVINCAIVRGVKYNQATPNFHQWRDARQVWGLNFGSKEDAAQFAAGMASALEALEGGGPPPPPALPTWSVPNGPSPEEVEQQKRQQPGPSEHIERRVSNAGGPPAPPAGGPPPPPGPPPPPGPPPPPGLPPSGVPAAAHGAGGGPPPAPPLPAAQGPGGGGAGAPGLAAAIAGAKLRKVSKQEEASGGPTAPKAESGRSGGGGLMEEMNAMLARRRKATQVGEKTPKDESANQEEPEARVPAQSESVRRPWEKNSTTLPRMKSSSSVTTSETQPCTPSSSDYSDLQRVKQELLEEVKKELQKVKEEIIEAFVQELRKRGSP
UniProt O75691: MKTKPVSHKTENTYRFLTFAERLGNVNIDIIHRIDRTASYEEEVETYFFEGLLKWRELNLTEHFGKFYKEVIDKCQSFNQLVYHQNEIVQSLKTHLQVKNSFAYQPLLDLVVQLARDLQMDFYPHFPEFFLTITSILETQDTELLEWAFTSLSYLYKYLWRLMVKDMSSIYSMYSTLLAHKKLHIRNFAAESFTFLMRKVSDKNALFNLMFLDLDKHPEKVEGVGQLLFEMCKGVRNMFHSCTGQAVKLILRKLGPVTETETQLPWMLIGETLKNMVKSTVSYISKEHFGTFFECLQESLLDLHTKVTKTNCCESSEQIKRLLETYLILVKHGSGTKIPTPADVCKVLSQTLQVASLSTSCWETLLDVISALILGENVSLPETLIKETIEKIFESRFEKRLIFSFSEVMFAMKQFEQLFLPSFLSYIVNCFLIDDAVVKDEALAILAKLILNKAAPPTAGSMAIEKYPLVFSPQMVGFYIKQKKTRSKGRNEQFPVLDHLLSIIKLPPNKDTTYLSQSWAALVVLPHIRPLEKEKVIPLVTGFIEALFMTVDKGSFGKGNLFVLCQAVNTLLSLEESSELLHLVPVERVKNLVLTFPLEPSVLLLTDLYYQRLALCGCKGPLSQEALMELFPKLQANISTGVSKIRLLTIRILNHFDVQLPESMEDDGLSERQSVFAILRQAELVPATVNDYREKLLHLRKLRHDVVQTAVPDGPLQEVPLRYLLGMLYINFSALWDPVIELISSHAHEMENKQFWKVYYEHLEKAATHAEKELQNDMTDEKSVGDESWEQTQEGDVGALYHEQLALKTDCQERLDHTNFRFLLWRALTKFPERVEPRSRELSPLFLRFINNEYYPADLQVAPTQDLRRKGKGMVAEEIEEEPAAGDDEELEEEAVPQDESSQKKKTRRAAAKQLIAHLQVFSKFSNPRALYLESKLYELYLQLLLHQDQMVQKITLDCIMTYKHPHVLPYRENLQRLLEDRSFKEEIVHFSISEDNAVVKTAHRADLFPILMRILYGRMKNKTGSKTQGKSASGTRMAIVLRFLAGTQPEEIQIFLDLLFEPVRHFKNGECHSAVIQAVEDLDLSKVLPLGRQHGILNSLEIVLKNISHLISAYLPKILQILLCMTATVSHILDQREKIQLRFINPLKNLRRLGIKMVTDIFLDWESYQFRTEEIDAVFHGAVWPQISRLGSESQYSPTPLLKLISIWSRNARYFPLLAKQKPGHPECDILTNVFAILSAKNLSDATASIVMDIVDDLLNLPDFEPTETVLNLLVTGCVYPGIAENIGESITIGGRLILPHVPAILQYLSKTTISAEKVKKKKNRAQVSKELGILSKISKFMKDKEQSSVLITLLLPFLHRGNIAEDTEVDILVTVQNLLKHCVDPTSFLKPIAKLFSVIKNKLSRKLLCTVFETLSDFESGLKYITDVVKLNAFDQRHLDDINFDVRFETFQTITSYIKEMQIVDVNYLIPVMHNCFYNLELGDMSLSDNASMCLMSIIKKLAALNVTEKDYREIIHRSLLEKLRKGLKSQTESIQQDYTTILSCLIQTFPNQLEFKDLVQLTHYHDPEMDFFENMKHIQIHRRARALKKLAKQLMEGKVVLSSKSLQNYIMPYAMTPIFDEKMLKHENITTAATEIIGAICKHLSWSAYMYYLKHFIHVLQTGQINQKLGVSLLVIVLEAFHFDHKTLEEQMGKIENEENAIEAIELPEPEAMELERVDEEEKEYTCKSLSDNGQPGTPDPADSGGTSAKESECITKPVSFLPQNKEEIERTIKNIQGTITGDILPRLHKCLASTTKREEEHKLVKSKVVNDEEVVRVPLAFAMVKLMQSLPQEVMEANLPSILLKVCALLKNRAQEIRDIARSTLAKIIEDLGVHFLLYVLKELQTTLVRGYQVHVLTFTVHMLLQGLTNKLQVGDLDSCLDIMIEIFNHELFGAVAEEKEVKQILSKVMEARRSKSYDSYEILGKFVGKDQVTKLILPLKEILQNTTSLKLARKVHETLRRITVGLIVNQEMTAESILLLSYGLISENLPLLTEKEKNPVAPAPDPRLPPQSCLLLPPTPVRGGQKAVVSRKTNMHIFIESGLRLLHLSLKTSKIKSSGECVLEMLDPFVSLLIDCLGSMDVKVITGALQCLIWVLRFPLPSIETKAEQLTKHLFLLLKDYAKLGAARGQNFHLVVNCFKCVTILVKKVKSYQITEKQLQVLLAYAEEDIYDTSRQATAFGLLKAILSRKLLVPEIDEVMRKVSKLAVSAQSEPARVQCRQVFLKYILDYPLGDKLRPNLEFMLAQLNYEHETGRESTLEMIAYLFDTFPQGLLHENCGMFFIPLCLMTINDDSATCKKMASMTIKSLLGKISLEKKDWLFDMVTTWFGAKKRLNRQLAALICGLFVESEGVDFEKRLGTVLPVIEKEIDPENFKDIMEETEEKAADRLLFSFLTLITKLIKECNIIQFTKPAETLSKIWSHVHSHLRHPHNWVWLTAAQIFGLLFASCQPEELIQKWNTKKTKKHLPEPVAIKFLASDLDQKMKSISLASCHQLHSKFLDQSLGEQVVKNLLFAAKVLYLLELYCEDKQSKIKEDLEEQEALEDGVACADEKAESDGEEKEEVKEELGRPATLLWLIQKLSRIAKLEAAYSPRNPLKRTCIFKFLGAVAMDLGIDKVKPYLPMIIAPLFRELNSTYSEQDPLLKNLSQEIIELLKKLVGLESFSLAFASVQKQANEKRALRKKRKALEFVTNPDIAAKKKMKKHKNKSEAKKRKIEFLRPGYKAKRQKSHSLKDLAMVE
UniProt P55072, whole entry, looked up: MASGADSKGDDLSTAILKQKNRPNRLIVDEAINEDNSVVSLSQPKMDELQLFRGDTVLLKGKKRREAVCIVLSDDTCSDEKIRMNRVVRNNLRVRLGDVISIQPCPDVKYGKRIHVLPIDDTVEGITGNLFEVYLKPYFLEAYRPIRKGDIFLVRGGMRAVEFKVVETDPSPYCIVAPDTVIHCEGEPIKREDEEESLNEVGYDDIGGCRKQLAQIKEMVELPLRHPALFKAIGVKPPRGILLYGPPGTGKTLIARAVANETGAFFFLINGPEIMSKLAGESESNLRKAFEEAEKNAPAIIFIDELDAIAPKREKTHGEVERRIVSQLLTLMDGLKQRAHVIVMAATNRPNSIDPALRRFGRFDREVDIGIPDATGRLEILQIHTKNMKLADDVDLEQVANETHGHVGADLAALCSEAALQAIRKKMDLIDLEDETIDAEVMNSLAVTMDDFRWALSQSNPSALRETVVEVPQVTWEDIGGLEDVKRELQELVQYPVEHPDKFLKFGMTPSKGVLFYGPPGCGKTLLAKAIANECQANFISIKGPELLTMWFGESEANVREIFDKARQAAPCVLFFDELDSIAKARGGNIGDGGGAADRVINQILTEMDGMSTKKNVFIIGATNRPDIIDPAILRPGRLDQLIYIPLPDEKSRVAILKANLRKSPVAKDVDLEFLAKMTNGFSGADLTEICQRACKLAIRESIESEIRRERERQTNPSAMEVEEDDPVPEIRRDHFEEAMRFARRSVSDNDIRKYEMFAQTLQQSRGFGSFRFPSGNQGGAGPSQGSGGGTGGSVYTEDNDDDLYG
UniProt Q9Y5J1: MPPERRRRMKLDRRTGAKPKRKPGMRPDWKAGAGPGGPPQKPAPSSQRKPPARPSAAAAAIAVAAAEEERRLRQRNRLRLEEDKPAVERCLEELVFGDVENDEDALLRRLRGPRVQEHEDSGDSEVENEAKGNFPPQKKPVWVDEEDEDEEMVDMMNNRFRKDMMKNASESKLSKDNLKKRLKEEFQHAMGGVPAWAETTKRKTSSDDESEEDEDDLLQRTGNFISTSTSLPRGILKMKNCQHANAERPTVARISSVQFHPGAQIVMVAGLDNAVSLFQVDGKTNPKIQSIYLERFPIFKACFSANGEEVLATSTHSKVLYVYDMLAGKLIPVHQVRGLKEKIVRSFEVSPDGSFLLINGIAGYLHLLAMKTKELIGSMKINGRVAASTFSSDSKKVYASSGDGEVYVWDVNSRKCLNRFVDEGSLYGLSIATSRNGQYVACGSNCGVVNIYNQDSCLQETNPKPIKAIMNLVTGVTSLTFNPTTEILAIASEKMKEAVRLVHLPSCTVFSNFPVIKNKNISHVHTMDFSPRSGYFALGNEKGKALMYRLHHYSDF
UniProt Q99536: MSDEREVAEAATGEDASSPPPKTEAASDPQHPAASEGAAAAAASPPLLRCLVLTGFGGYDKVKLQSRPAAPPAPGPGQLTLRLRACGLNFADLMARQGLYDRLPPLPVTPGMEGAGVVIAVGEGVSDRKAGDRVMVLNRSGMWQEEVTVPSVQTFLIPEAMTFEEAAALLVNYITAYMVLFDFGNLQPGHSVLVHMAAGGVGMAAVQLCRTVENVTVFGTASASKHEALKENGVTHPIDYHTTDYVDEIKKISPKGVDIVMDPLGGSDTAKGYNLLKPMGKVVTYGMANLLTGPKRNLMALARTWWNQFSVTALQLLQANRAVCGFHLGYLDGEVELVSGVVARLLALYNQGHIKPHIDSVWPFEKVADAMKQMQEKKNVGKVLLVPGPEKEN
UniProt Q96JC1: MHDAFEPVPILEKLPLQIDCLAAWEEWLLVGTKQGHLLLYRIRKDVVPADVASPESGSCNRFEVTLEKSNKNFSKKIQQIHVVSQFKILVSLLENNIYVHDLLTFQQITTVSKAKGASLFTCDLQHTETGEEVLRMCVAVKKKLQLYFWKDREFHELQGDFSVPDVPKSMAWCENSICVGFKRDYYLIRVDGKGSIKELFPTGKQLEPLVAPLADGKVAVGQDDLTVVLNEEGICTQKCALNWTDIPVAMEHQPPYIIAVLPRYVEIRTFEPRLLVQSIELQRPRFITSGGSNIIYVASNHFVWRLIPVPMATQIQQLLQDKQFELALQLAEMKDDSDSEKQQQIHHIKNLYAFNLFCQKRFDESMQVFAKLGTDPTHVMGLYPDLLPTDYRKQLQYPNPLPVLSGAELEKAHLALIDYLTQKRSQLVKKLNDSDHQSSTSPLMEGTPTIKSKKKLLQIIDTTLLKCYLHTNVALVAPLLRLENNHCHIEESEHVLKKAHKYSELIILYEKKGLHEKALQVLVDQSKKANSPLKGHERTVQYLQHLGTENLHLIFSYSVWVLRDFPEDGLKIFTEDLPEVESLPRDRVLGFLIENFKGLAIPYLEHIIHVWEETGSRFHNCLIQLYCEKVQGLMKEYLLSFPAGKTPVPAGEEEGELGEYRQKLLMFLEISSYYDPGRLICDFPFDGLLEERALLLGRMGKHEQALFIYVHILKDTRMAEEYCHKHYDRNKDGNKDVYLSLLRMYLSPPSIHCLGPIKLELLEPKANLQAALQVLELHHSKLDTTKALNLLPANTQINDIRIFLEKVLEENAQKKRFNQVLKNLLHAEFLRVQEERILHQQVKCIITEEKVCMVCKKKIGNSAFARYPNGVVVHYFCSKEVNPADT
UniProt Q9NP79: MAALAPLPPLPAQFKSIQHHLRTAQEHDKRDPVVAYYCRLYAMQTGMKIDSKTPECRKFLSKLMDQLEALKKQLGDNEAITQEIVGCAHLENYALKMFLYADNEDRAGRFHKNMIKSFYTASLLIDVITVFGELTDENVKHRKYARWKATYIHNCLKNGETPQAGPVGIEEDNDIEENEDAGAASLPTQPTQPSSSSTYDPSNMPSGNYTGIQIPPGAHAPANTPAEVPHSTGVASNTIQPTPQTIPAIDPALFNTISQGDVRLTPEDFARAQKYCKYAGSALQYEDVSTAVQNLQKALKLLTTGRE

Compound: CC1Cc2ccccc2N1C(=O)C1CCCN(C1)C(=O)CCl (mixture of isomers) [TRIM25 ligand 11 (diastereomer mixture)]
Test: probe-labelled cysteine peptide fold change vs DMSO (competition) (log2 fold change); higher = less target engagement (more negative = stronger competition)
Details: THP-1, incubation time: 4 h
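Also: competitive chemoproteomic profiling in live THP-1 cells with an iodoacetamide desthiobiotin (IA-DTB) probe, comparing probe-labelled peptide intensities in compound-treated cells against DMSO-treated controls.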

Target	probe-labelled cysteine peptide fold change (10 µM)	probe-labelled cysteine peptide fold change (50 µM)
VRK1_Q99986_220_CHDGTIEFTSIDAHNGVAPSR (UniProt Q99986)	0.0205	-0.0347
VAV1_P15498_31_VTWDGAQVCELAQALR (UniProt P15498)	0.0648	0.411
VKORC1L1_Q8N0U8_50_ALCDLGPWVK (UniProt Q8N0U8)	0.0699	-0.0064
UTRN_P46939_1627_LCVLNAGWSR (UniProt P46939)	0.0369	0.0212
VASP_P50552_64_KMQPDQQVVINCAIVR (UniProt P50552)	-0.174	-0.0977
VIRMA_Q69YN4_557_CHFYEVLSEIKR (UniProt Q69YN4)	0.174	0.171
USP9X_Q93008_2293_KIIEDCSNSEETVK (UniProt Q93008)	0.127	0.0296
VPS51_Q9UID3_226_AIQDDCQVITAR (UniProt Q9UID3)	-0.0611	0.0255
UTP20_O75691_295_EHFGTFFECLQESLLDLHTK (UniProt O75691)	0.19	0.107
VLDLR_P98155_251_CPASEIQCGSGECIHK (UniProt P98155)	0.13	-0.0623
VCP_P55072_174_VVETDPSPYCIVAPDTVIHCEGEPIKR (UniProt P55072)	0.0996	-0.0884
VPS18_Q9P253_947_ADLDELVAAECVYCGELMIR (UniProt Q9P253)	0.712	0.481
VPS28_Q9UK41_103_FRLDCPLAMER (UniProt Q9UK41)	-0.136	-0.217
VPS35_Q96QK1_640_CFSEENHEPLR (UniProt Q96QK1)	0.109	-0.0171
UTP18_Q9Y5J1_90_CLEELVFGDVENDEDALLRR (UniProt Q9Y5J1)	-0.132	-0.135
VAV2_P52735_557_CGVGAHK (UniProt P52735)	0.0102	0.111
VCP_P55072_174+184_VVETDPSPYCIVAPDTVIHCEGEPIKR (UniProt P55072)	-0.0334	-0.207
VEZF1_Q14119_327_TCMSEETSNQK (UniProt Q14119)	-0.186	-0.42
WAPL_Q7Z5K2_891_ALQHCEELIQQYNR (UniProt Q7Z5K2)	0.739	0.496
WAC_Q9BTA9_615_VCEIQATLR (UniProt Q9BTA9)	0.122	0.275
VAT1_Q99536_50_CLVLTGFGGYDK (UniProt Q99536)	-0.0216	-0.00631

Target	probe-labelled cysteine peptide fold change (10 µM)	probe-labelled cysteine peptide fold change (50 µM)
USP9Y_O00507_1568_NAGATCYMNSVIQQLYMIPSIR (UniProt O00507)	0.0032	-0.0424
VPS4A_Q9UN37_233_PSIIFIDEVDSLCGSR (UniProt Q9UN37)	0.109	0.0906
VPS53_Q5VIR6-4_685_CKPISMVGAEQLLLDTHSLK (UniProt Q5VIR6)	-0.0744	0.0731
VCP_P55072_209_EDEEESLNEVGYDDIGGCRK (UniProt P55072)	-0.222	-0.151
VAV3_Q9UKW4_44_DGVLLCQLLNNLR (UniProt Q9UKW4)	0.245	0.381
VPS39_Q96JC1_467_CYLHTNVALVAPLLR (UniProt Q96JC1)	-0.0605	0.142
VIRMA_Q69YN4_781_CTASEETDHSDLLGTLHNLYLITFNPVGR (UniProt Q69YN4)	0.281	0.101
VPS13A_Q96RL7_1608_ACPFLPVK (UniProt Q96RL7)	-0.0957	-0.164
VPS13B_Q7Z7G8_868_CASGTMGSIK (UniProt Q7Z7G8)	-0.0295	-0.0154
VPS13C_Q709C8_1098_LNAFCVIVCNEK (UniProt Q709C8)	0.212	0.179
VPS13C_Q709C8_2289_GIEHSLIEENCGVVVESIQVTLECGLGHR (UniProt Q709C8)	0.103	0.0377
VLDLR_P98155_108_CDGDPDCEDGSDESPEQCHMR (UniProt P98155)	0.042	-0.00324
UXS1_Q8NBZ7_230_ACYDEGK (UniProt Q8NBZ7)	-0.0489	-0.0987
VTA1_Q9NP79_87_QLGDNEAITQEIVGCAHLENYALK (UniProt Q9NP79)	0.00313	0.0507
VARS_P26640_927_FGLCAYMSQGR (UniProt P26640)	-0.119	-0.141
VRK1_Q99986_220_CHDGTIEFTSIDAHNGVAPSRR (UniProt Q99986)	-0.155	-0.0245
UTP18_Q9Y5J1_241_NCQHANAERPTVAR (UniProt Q9Y5J1)	-0.0588	-0.0636
VPS39_Q96JC1_877_YPNGVVVHYFCSK (UniProt Q96JC1)	0.0492	0.234
UTP20_O75691_242_NMFHSCTGQAVK (UniProt O75691)	0.0211	0.125
VCL_P18206_422_IAELCDDPK (UniProt P18206)	0.254	0.233
VPS4B_O75351_240_ENKPSIIFIDEIDSLCGSR (UniProt O75351)	-0.0128	-0.181

Target	probe-labelled cysteine peptide fold change (10 µM)	probe-labelled cysteine peptide fold change (50 µM)
VCPIP1_Q96JH7_469_CLLCGALSELHVPPEWLAPGGK (UniProt Q96JH7)	-0.198	-0.24
UTP20_O75691_616_LALCGCK (UniProt O75691)	0.0199	-0.0424
VCPIP1_Q96JH7_517_NYSFPLNNLVCSYDSVK (UniProt Q96JH7)	-0.0371	-0.113
VARS_P26640_1185_CSIHLQLQGLVDPARELGK (UniProt P26640)	-0.114	-0.105
VPS13C_Q709C8_2276+2289_GIEHSLIEENCGVVVESIQVTLECGLGHR (UniProt Q709C8)	0.105	-0.00969
VARS_P26640_682_CGEMAQAASAAVTR (UniProt P26640)	-0.153	-0.0782
VARS_P26640_1185_CSIHLQLQGLVDPAR (UniProt P26640)	-0.0311	-0.151
VPS53_Q5VIR6_321_IAVEFCHVTR (UniProt Q5VIR6)	0.0366	0.00229
VRK1_Q99986_205_YCPEGVHK (UniProt Q99986)	0.0323	-0.0156
USP8_P40818_939_STVQCLTCHK (UniProt P40818)	0.0545	0.19
VAT1L_Q9HCJ6_253+255_ISAEGVDIVLDCLCGDNTGK (UniProt Q9HCJ6)	0.196	-0.072
VPS54_Q9P1Q0_40_HIRPVPSLPDVCPK (UniProt Q9P1Q0)	0.0203	-0.252
VPS29_Q9UBQ0_15_CNSLPAK (UniProt Q9UBQ0)	-0.0729	0.0832
USP7_Q93009_961_IIGVHQEDELLECLSPATSR (UniProt Q93009)	0.324	0.123
VPS13B_Q7Z7G8_1993_CIDPGK (UniProt Q7Z7G8)	-0.05	-0.0208
VCP_P55072_522_GVLFYGPPGCGK (UniProt P55072)	-0.032	-0.107
VPS13C_Q709C8_1372_ILTENLCEGTEDLDK (UniProt Q709C8)	0.089	0.414
VARS2_Q5ST30_549_QLWWGHQIPAYLVVEDHAQGEEDCWVVGR (UniProt Q5ST30)	0.175	0.165
VTA1_Q9NP79_155_ATYIHNCLK (UniProt Q9NP79)	-0.12	0.0362
VPS72_Q15906_292_EVCPVTHRPALYRDPVTDIPYATAR (UniProt Q15906)	0.148	-0.164
VPS26B_Q4G0F5_334_TPSQLSDNNCRQ (UniProt Q4G0F5)	-0.0785	-0.231

Target	probe-labelled cysteine peptide fold change (10 µM)	probe-labelled cysteine peptide fold change (50 µM)
VPS18_Q9P253_421_ERPDCLDTVLAR (UniProt Q9P253)	0.0114	-0.003
VPS35_Q96QK1_673_AVSTCAHLFWSGR (UniProt Q96QK1)	-0.176	-0.348
VLDLR_P98155_367_ECHINECLVNNGGCSHICK (UniProt P98155)	-0.00363	0.189
VPS52_Q8N1B4_119_DYIQESENIASLHNQITACDAVLER (UniProt Q8N1B4)	0.0198	0.119
VARS_P26640_381_MRGETTLWNPGCDHAGIATQVVVEK (UniProt P26640)	0.0494	-0.0393
VAC14_Q08AM6_101_ELIEPVLTCFNDADSR (UniProt Q08AM6)	-0.258	-0.33
VPS35_Q96QK1_253_QIVLTGILEQVVNCR (UniProt Q96QK1)	-0.0242	-0.131
VLDLR_P98155_344_VCNQEQDCR (UniProt P98155)	0.166	0.0149
VRK1_Q99986_220_RCHDGTIEFTSIDAHNGVAPSR (UniProt Q99986)	0.0479	-0.0945
VPS39_Q96JC1_723_MAEEYCHK (UniProt Q96JC1)	-0.0648	-0.00167
USP9Y_O00507_1729_ICQGCPHRYECEESFTTLNVDIR (UniProt O00507)	-0.0867	-0.207
VAT1_Q99536_86_ACGLNFADLMAR (UniProt Q99536)	0.00421	-0.0371
VPS16_Q9H269_271_QMVWCSRPR (UniProt Q9H269)	-0.169	0.0158
USP8_P40818_985+988_FYCSHCR (UniProt P40818)	0.0844	0.06
VCP_P55072_209_REDEEESLNEVGYDDIGGCR (UniProt P55072)	0.168	0.0307
UTP15_Q8TED0_85_DTAYCATFR (UniProt Q8TED0)	0.046	0.0662
VARS_P26640_340_GVFMMCIPPPNVTGSLHLGHALTNAIQDSLTR (UniProt P26640)	-0.0333	-0.0484
VPS18_Q9P253_780_HVVQEEEDVQTAMACLASCPLLK (UniProt Q9P253)	-0.173	0.078
USP9X_Q93008_864_EYINECDSDYHEER (UniProt Q93008)	-0.0144	-0.081
UTRN_P46939_2986_EVAGPTEMCDQR (UniProt P46939)	0.0703	-0.114
VPS13C_Q709C8_1998_TCTLDDLR (UniProt Q709C8)	0.173	0.14
